Measurements reported in publication PMC4001239.
No constants are given. Whether binding was seen depends on the method and setting. Binding seen in cells or lysates may run through a third protein. Some results given as binding are weak or reduced against the parent protein; the word gives no strength. For some assays here: Sequences can lack the tags named with a protein.

What was measured:
Ktr4-3HA (S. cerevisiae) [1] = molecular target: T1, Ktr4-3HA (S. cerevisiae) (UniProt P38131); assay: co-IP; Δsvp26 strains expressing HA-tagged Kre2-family proteins and Svp26-FLAG; glass-bead lysate solubilized with 1% digitonin; precipitated with anti-HA mAb; Svp26-FLAG detected with anti-FLAG mAb
T1 sequence: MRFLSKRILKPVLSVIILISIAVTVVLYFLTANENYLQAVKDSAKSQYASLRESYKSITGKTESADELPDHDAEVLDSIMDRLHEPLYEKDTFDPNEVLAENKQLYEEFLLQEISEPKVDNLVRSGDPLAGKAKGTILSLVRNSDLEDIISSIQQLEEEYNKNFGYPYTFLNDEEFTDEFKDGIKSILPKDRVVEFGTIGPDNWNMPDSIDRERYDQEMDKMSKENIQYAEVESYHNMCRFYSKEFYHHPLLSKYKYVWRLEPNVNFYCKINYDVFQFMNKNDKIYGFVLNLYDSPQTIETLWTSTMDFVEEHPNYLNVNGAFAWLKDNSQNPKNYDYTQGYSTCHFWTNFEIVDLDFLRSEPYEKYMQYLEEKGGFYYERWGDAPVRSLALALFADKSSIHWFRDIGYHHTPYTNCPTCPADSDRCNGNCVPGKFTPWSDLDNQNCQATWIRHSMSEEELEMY

Kre2-3HA (S. cerevisiae) = molecular target: T2, Kre2-3HA (S. cerevisiae) (UniProt P27809); assay: as above
T2 sequence: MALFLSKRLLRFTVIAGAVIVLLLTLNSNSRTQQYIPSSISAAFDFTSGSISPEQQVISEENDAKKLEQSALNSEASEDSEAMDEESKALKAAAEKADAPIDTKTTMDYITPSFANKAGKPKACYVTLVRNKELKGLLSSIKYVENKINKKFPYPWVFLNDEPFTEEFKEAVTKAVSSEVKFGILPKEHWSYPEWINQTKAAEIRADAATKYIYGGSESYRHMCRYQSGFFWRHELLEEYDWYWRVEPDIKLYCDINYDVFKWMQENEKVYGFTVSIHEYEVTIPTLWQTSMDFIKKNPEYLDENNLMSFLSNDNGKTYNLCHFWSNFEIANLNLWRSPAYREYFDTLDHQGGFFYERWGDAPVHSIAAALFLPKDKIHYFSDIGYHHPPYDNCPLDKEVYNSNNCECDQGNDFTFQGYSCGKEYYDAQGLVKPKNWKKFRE

Ktr1-3HA (S. cerevisiae) = molecular target: T3, Ktr1-3HA (S. cerevisiae) (UniProt P27810); assay: as above
T3 sequence: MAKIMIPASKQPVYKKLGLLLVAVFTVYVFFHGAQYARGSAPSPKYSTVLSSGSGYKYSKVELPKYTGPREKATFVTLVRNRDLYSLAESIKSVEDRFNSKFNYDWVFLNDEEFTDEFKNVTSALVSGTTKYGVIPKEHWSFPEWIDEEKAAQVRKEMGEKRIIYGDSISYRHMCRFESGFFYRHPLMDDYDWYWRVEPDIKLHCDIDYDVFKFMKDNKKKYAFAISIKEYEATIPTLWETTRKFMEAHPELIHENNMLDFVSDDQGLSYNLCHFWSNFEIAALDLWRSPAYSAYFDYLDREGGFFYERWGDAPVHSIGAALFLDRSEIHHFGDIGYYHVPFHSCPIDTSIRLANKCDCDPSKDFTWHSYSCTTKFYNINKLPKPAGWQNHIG

[2] = molecular target: T4, 6myc-Erv41 (S. cerevisiae) (UniProt Q04651); assay: co-IP; Δerv41 or Δerv46 cells expressing 6myc-Erv41 or 6myc-Erv46 and Ktr4-3HA or Ktr3-3HA; glass-bead lysate solubilized with 1% Triton X-100 (text; the legend says prepared as in Fig. 4); precipitated with anti-myc mAb 9E10; blotted with anti-HA, and with anti-Erv41 and anti-Erv46
T4 sequence: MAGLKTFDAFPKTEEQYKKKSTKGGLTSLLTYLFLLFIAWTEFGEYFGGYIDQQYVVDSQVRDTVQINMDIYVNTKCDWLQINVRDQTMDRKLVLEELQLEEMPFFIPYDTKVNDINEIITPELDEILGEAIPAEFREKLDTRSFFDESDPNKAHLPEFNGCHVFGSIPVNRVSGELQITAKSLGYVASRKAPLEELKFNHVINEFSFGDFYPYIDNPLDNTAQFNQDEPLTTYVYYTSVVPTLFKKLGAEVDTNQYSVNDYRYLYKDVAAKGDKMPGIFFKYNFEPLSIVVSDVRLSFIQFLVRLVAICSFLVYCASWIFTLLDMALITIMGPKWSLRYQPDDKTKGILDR

[3] = molecular target: T5, 6myc-Erv46 (S. cerevisiae) (UniProt P39727); assay: as above
T5 sequence: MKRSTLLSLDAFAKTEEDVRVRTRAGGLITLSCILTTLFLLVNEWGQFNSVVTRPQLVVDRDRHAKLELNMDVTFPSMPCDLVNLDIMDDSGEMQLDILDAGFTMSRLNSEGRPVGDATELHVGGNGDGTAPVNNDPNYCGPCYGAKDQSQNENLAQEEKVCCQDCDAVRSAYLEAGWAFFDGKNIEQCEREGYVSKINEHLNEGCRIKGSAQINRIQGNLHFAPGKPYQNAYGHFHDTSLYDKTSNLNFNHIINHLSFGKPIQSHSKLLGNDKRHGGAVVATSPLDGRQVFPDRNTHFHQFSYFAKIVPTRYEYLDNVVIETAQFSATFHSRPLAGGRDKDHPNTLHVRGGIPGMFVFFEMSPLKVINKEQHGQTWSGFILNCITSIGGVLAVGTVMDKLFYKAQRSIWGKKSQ

Ktr4-3HA (S. cerevisiae) [4] = molecular target: T1, Ktr4-3HA (S. cerevisiae); assay: co-IP; strains with Erv41 or Erv41ΔC and Ktr4-3HA; lysate solubilized with 1% digitonin; proteins co-immunoprecipitated with Ktr4-3HA blotted with anti-Erv41

Row | Binder | binding [2] | binding [3] | further results
1 | Svp26-FLAG (protein, UniProt P38869 1-228) MLLELISYAGTVSGFLFLTLSIASGLYYISELVEEHTEPTRRFLTRAIYGIILILILLLLLDGFPFKLTLFSIACYIVYYQNLKSFPFISLTSPTFLLSCVCVVLNHYFWFKYFNDTEVPPQFKFDPNYIPRRRASFAEVASFFGICVWFIPFALFVSLSAGDYVLPTTSEQHMAKKNDDITTNNQPKFRKRAVGLARVVINSVRKYIYSLARVFGYEIEPDFDRLAV | – | – | binding (Ktr4-3HA (S. cerevisiae) [1]): binds weakly; binding (Kre2-3HA (S. cerevisiae)): binds weakly; binding (Ktr1-3HA (S. cerevisiae)): binds
2 | Ktr4-3HA (protein, UniProt P38131 1-464) MRFLSKRILKPVLSVIILISIAVTVVLYFLTANENYLQAVKDSAKSQYASLRESYKSITGKTESADELPDHDAEVLDSIMDRLHEPLYEKDTFDPNEVLAENKQLYEEFLLQEISEPKVDNLVRSGDPLAGKAKGTILSLVRNSDLEDIISSIQQLEEEYNKNFGYPYTFLNDEEFTDEFKDGIKSILPKDRVVEFGTIGPDNWNMPDSIDRERYDQEMDKMSKENIQYAEVESYHNMCRFYSKEFYHHPLLSKYKYVWRLEPNVNFYCKINYDVFQFMNKNDKIYGFVLNLYDSPQTIETLWTSTMDFVEEHPNYLNVNGAFAWLKDNSQNPKNYDYTQGYSTCHFWTNFEIVDLDFLRSEPYEKYMQYLEEKGGFYYERWGDAPVRSLALALFADKSSIHWFRDIGYHHTPYTNCPTCPADSDRCNGNCVPGKFTPWSDLDNQNCQATWIRHSMSEEELEMY | no binding | binds | –
3 | Erv41 (protein, UniProt Q04651 1-352) MAGLKTFDAFPKTEEQYKKKSTKGGLTSLLTYLFLLFIAWTEFGEYFGGYIDQQYVVDSQVRDTVQINMDIYVNTKCDWLQINVRDQTMDRKLVLEELQLEEMPFFIPYDTKVNDINEIITPELDEILGEAIPAEFREKLDTRSFFDESDPNKAHLPEFNGCHVFGSIPVNRVSGELQITAKSLGYVASRKAPLEELKFNHVINEFSFGDFYPYIDNPLDNTAQFNQDEPLTTYVYYTSVVPTLFKKLGAEVDTNQYSVNDYRYLYKDVAAKGDKMPGIFFKYNFEPLSIVVSDVRLSFIQFLVRLVAICSFLVYCASWIFTLLDMALITIMGPKWSLRYQPDDKTKGILDR | – | binds | –
4 | Erv46 (protein, UniProt P39727 1-415) MKRSTLLSLDAFAKTEEDVRVRTRAGGLITLSCILTTLFLLVNEWGQFNSVVTRPQLVVDRDRHAKLELNMDVTFPSMPCDLVNLDIMDDSGEMQLDILDAGFTMSRLNSEGRPVGDATELHVGGNGDGTAPVNNDPNYCGPCYGAKDQSQNENLAQEEKVCCQDCDAVRSAYLEAGWAFFDGKNIEQCEREGYVSKINEHLNEGCRIKGSAQINRIQGNLHFAPGKPYQNAYGHFHDTSLYDKTSNLNFNHIINHLSFGKPIQSHSKLLGNDKRHGGAVVATSPLDGRQVFPDRNTHFHQFSYFAKIVPTRYEYLDNVVIETAQFSATFHSRPLAGGRDKDHPNTLHVRGGIPGMFVFFEMSPLKVINKEQHGQTWSGFILNCITSIGGVLAVGTVMDKLFYKAQRSIWGKKSQ | binds | – | –
5 | Erv41ΔC (domain or fragment, UniProt Q04651 1-339) MAGLKTFDAFPKTEEQYKKKSTKGGLTSLLTYLFLLFIAWTEFGEYFGGYIDQQYVVDSQVRDTVQINMDIYVNTKCDWLQINVRDQTMDRKLVLEELQLEEMPFFIPYDTKVNDINEIITPELDEILGEAIPAEFREKLDTRSFFDESDPNKAHLPEFNGCHVFGSIPVNRVSGELQITAKSLGYVASRKAPLEELKFNHVINEFSFGDFYPYIDNPLDNTAQFNQDEPLTTYVYYTSVVPTLFKKLGAEVDTNQYSVNDYRYLYKDVAAKGDKMPGIFFKYNFEPLSIVVSDVRLSFIQFLVRLVAICSFLVYCASWIFTLLDMALITIMGPKWSLR | – | – | binding (Ktr4-3HA (S. cerevisiae) [4]): binds
